Laboratory results reported in PubChem BioAssay AID2685 (National Center for Advancing Translational Sciences (NCATS), 2010).
The other results are listed elsewhere or left out. These are further read-outs of the screen, such as a control signal, another cell line or another target. No call is given for them. The list favours compounds with an active or inconclusive main result. Potencies come from curve fits of mixed quality, noted in brackets.

Experiment: qHTS Assay for Lipid Storage Modulators in Drosophila S3 Cells;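 for cell number change: cells counted by Cell Tracker Red CMTPX staining in the red channel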
Conditions: BODIPY lipid droplet fluorescence, 18-24 h; for cell number change: measured here: cell count max response, cells fed with added oleic acid
In short: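 Laser-scanning cytometry quantifies lipid droplet accumulation (500–530 nm total intensity; droplet/cell object ratio) in oleic acid-fed (400 uM added) Drosophila S3 cells treated with a concentration series. 20 uM Triacsin C defined 100% inhibition.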

[1] = measured here: lipid fluorescence (Fed channel) AC50, cells fed with added oleic acid
[2] = measured here: cell number channel AC50, cells fed with added oleic acid

SMILES: Cc1ccc(-c2n[nH]c(=S)n2-c2ccccc2)cc1
- cell number change: 29.4%
- AC50 [1]: 14.6 µM [rising, single point]

SMILES: Cc1ccc(N2CC(C(=O)Nc3ccc4c(c3)OCCO4)CC2=O)cc1 (stereo not given)
- cell number change: 10.9%
- AC50 [1]: 32.6 µM [rising, single point]

SMILES: CN(c1ccc(OCC(=O)N2CCOCC2)cc1)S(=O)(=O)c1ccc(Cl)cc1
- AC50 [1]: 29.1 µM [rising, single point]

SMILES: OCCN1CCN(Cc2cccc(Oc3ccc(Cl)cc3)c2)CC1
- cell number change: -8.73%
- AC50 [2]: 7.31 µM [falling, single point]
- AC50 [1]: 6.51 µM [falling, partial curve]

SMILES: Cc1cc(C)c(C#N)c(Nc2ccccc2C)n1
- cell number change: 17.3%
- AC50 [1]: 23.1 µM [rising, single point]

SMILES: Cc1nn(-c2ccccc2)c(C)c1NC(=O)COC(=O)c1ccc(S(=O)(=O)C(F)F)cc1
- AC50 [2]: 4.11 µM [falling, single point]
- AC50 [1]: 16.4 µM [falling, partial curve, poor fit]

SMILES: CC/C(=N\NC(=O)c1ccc(CN(C)S(=O)(=O)c2ccc(C)cc2)cc1)c1ccc(OC(F)F)cc1
- cell number change: -72.9%
- AC50 [2]: 18.4 µM [falling, partial curve]
- AC50 [1]: 7.31 µM [falling, partial curve]

SMILES: COC(=O)c1sccc1NC(=O)Nc1cccc(OC)c1
- cell number change: -4.62%
- AC50 [1]: 6.51 µM [rising, partial curve, poor fit]

SMILES: Cc1cccc(NC(=O)c2ccc(C)c(S(=O)(=O)N3CCCCC3)c2)n1
- cell number change: 27.1%
- AC50 [1]: 6.51 µM [rising, single point]

SMILES: COc1cccc(-c2cccc(NC(=O)C3CCN(C4CCOCC4)CC3)c2)c1
- cell number change: 25.9%
- AC50 [1]: 29.1 µM [rising, single point]

SMILES: Cc1cccc(Cn2cc(SCC(=O)Nc3nccs3)c3ccccc32)c1
- AC50 [1]: 6.51 µM [rising, single point]

SMILES: CCCOc1ccc(NC(=O)C2CC(=O)N/C(=N/N=C(\C)CCc3ccc4c(c3)OCO4)S2)cc1 (stereo not given)
- AC50 [1]: 0.103 µM [rising, partial curve]

SMILES: CN(C)c1ccc(CNC(=O)c2ccc(CNc3c(N4CCCCC4)c(=O)c3=O)cc2)cc1
- cell number change: -42.2%
- AC50 [2]: 0.731 µM [falling, full curve]
- AC50 [1]: 0.731 µM [falling, full curve]

SMILES: CCCn1c(N)c(C(=O)CN(C)CC(=O)Nc2ccc(C)cc2)c(=O)[nH]c1=O
- cell number change: 11.2%

SMILES: CCOC(=O)c1c(NC(=O)c2cc3n(n2)C(C(F)(F)F)CC(c2cccs2)N3)sc(C)c1C (stereo not given)
- cell number change: -1.59%
- AC50 [1]: 0.184 µM [rising, full curve, poor fit]

SMILES: CC(C)c1nc2ccc(C(=O)O)cc2[nH]1
- AC50 [1]: 6.51 µM [falling, single point]

SMILES: O=C(Nc1ccc2c(c1)CCC2)C1CCN(c2ncccn2)CC1
- AC50 [2]: 0.92 µM [rising, partial curve, poor fit]

SMILES: CN(C)CCn1c2c(c(SCC(=O)Nc3cccc(C(F)(F)F)c3)nc1=O)CCCC2
- cell number change: -25%
- AC50 [2]: 4.11 µM [falling, full curve, poor fit]

SMILES: O=S(=O)(N/N=C/c1ccccc1OCc1ccc(Cl)cc1)c1ccccc1
- cell number change: 10.5%
- AC50 [1]: 0.58 µM [rising, single point]

SMILES: Cn1cc(Br)c(NC(=O)/C=C/C(=O)O)n1
- cell number change: -67.5%
- AC50 [2]: 18.4 µM [falling, partial curve]
- AC50 [1]: 18.4 µM [falling, partial curve]

SMILES: COc1ccc(CCNC(=O)CSc2nnc(CNC(=O)c3cccs3)o2)cc1OC
- cell number change: 36.7%
- AC50 [2]: 18.4 µM [rising, single point]

SMILES: CC1CCCCC12NC(=O)N(CC(=O)OCc1ccc(Br)cc1)C2=O (stereo not given)
- cell number change: 0.519%
- AC50 [1]: 8.2 µM [rising, partial curve]

SMILES: Cn1nc(-c2ccc(C(=O)NCC3CCCO3)cc2)c2ccccc2c1=O (stereo not given)
- cell number change: -11.8%

SMILES: COc1ccc(OC)c(NC(=O)Cn2cc(C#N)c3cc(Br)ccc32)c1
- cell number change: -49.1%
- AC50 [2]: 23.1 µM [falling, single point]

SMILES: O=C(c1cn(-c2ccccc2)nc1-c1cccs1)N1CCN(c2ccccc2)CC1
- cell number change: -15.9%
- AC50 [2]: 0.0731 µM [falling, full curve, poor fit]

SMILES: O=C(NCc1ccco1)/C(=C/c1ccccc1F)NC(=O)c1ccccc1
- cell number change: -2.69%
- AC50 [1]: 32.6 µM [falling, single point]

SMILES: COc1cc(C(=O)N(CCCO)Cc2cc3ccc(C)c(C)c3[nH]c2=O)cc(OC)c1OC
- cell number change: 7.6%
- AC50 [2]: 6.51 µM [rising, single point]
- AC50 [1]: 29.1 µM [rising, single point]

SMILES: CC(C)c1ccc(S(=O)(=O)Nc2ccc(N3CCOCC3)cc2)cc1
- cell number change: 4.7%

SMILES: Cc1ccc(-n2nnnc2CNC(=O)C2CC(=O)N(c3ccccc3)C2)cc1C (stereo not given)
- cell number change: 6.57%
- AC50 [1]: 6.51 µM [falling, single point]
